The other results are listed elsewhere or left out.
Experiments:
Assay in all cases: log2 fold change, soluble protein after heating vs DMSO (PISA); higher = thermal stabilisation; K562 cells, 10 uM, 30 min; active = over 0.2 and 3.5 SD of the protein, either way, in both replicates (recomputed)
[1] = compound: COC1=CC=C(C=C1)CN2C=CC3=C2C=C(C=C3)C(=O)NO
Method in brief: (§1)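 K562 cells (2×10^6 cells/mL) were treated with 10 μM compound for 30 min, and aliquots were heated for 3 min over 48°C-58°C. Pooled aliquots were extracted in PBS with 0.5% NP-40 at 4°C, and the supernatant after 21,000xg for 90 min was measured by TMTpro 16plex LC-MS/MS with channel sums equalised. Reported thermal stability, relative to control samples and from duplicates, is a log2 fold change.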

Amino acid sequences for entries named in this document (tags omitted). A change or cut given only in a name is not applied to a line headed by its entry.
UniProt Q9HB90, whole entry, looked up: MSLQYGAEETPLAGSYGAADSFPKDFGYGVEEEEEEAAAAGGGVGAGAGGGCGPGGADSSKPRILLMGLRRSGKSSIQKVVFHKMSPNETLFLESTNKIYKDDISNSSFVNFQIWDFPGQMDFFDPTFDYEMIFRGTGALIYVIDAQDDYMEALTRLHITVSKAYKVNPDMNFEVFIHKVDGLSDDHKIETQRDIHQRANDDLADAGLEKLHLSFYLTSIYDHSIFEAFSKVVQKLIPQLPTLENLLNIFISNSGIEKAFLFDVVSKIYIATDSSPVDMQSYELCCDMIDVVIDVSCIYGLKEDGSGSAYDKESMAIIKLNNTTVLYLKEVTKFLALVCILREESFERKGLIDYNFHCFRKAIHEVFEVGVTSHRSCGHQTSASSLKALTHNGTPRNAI
UniProt O75116: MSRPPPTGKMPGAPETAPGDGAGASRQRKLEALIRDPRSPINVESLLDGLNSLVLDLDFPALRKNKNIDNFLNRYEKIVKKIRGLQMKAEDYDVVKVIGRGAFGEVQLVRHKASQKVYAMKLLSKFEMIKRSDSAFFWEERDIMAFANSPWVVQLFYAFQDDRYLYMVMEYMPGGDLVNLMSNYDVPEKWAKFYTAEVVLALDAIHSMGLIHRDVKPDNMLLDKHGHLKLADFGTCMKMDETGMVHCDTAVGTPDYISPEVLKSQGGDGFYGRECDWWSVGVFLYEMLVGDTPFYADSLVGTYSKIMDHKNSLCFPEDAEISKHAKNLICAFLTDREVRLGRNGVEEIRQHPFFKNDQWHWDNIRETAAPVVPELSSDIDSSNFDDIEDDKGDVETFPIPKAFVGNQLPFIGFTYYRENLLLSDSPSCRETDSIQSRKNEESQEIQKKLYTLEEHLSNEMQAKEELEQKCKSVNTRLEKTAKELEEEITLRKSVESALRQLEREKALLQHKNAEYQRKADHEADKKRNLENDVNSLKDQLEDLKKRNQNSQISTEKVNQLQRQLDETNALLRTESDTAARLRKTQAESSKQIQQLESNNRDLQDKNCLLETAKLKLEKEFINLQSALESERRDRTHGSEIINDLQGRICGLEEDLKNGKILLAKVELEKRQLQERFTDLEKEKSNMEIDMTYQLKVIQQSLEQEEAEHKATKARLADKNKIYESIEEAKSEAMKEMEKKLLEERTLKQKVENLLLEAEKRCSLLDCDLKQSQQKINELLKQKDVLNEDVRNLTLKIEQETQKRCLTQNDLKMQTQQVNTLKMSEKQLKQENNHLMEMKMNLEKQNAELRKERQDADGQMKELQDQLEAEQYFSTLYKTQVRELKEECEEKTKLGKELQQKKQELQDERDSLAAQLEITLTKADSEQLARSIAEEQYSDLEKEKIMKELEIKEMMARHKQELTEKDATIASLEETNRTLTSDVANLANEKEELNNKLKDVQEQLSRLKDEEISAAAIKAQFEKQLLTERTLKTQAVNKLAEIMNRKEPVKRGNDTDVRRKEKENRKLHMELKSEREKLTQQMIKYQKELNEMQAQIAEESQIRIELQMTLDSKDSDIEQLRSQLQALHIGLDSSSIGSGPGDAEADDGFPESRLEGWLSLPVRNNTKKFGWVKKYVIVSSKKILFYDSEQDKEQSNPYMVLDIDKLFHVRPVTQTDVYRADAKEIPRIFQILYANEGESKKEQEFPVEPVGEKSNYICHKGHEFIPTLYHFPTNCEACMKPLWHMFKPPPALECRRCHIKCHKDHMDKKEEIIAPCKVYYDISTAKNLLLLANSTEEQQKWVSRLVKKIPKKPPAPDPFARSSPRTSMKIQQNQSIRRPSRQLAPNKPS
UniProt P08922: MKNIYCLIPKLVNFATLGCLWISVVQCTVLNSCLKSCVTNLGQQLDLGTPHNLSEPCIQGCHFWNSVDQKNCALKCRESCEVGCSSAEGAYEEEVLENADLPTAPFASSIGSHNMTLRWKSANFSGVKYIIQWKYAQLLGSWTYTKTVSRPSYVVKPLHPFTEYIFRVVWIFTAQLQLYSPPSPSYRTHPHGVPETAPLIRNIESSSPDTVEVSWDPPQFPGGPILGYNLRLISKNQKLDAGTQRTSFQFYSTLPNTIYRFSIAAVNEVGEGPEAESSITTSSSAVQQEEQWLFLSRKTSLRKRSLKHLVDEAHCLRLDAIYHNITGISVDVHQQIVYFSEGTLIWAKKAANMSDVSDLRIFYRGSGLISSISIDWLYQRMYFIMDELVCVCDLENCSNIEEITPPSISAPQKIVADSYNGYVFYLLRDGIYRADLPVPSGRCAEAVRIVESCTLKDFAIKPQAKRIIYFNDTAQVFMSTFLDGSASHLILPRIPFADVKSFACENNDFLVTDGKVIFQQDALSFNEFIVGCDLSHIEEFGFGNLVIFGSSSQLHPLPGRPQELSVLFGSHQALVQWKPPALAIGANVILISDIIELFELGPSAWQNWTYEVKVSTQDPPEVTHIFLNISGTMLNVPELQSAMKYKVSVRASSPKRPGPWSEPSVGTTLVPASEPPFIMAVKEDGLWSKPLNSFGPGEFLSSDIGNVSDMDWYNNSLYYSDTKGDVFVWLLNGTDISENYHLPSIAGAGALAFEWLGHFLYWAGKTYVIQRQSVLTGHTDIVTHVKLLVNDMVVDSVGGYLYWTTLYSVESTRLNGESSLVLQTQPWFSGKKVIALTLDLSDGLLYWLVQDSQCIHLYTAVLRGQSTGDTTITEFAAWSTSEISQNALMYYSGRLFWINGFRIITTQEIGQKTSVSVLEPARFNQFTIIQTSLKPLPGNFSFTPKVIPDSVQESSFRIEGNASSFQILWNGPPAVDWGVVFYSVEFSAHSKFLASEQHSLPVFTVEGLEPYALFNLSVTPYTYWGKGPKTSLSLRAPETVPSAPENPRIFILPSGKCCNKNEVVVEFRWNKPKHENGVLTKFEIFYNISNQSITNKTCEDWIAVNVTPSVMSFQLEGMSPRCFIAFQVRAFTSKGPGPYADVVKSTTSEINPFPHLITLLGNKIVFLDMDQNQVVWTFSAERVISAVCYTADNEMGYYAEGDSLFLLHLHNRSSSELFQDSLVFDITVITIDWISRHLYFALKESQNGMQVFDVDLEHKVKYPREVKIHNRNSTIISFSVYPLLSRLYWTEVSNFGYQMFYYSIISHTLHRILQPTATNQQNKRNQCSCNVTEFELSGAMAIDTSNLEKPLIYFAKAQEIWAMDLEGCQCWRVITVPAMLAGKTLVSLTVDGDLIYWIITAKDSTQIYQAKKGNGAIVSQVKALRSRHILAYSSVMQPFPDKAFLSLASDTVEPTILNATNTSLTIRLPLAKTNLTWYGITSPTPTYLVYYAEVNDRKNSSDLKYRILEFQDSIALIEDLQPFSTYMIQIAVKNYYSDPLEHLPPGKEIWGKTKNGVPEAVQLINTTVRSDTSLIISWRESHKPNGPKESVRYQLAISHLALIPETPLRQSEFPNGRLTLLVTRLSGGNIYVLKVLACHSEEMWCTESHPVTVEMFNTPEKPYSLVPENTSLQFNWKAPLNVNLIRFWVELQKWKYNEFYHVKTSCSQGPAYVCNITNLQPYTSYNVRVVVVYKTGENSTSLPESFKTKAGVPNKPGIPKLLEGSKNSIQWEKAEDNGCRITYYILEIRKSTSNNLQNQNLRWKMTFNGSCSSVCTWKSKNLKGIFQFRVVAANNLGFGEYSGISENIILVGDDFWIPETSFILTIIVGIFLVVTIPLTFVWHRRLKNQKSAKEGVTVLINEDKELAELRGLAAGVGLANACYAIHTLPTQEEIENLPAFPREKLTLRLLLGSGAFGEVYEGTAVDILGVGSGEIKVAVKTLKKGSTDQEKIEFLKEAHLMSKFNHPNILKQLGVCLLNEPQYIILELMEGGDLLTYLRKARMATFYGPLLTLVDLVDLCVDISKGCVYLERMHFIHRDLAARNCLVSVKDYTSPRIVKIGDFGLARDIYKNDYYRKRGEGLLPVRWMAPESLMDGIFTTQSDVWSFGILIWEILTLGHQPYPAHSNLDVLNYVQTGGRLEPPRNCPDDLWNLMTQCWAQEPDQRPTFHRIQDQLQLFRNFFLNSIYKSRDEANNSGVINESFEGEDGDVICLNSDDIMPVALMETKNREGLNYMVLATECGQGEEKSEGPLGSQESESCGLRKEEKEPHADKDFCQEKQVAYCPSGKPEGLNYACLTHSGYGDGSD
UniProt P62070: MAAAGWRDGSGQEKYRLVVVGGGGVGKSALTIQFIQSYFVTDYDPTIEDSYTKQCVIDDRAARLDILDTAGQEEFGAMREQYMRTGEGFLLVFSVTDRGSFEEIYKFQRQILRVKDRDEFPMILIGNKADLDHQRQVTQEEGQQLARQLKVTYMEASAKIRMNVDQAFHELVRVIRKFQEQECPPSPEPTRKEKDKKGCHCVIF
UniProt Q86UA6: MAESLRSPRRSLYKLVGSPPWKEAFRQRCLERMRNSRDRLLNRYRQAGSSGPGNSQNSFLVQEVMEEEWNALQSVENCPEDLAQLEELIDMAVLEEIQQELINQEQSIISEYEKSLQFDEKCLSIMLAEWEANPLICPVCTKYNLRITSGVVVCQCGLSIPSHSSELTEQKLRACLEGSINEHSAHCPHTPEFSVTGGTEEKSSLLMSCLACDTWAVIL
UniProt Q9GZN7, whole entry, looked up: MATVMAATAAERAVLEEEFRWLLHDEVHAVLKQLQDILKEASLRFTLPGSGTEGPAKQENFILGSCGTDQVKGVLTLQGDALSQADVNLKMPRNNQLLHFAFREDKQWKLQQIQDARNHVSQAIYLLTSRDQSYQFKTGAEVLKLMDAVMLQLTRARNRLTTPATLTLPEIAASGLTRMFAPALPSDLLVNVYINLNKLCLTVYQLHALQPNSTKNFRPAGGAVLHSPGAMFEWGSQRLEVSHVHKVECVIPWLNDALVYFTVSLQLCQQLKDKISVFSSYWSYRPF
UniProt Q5VT52: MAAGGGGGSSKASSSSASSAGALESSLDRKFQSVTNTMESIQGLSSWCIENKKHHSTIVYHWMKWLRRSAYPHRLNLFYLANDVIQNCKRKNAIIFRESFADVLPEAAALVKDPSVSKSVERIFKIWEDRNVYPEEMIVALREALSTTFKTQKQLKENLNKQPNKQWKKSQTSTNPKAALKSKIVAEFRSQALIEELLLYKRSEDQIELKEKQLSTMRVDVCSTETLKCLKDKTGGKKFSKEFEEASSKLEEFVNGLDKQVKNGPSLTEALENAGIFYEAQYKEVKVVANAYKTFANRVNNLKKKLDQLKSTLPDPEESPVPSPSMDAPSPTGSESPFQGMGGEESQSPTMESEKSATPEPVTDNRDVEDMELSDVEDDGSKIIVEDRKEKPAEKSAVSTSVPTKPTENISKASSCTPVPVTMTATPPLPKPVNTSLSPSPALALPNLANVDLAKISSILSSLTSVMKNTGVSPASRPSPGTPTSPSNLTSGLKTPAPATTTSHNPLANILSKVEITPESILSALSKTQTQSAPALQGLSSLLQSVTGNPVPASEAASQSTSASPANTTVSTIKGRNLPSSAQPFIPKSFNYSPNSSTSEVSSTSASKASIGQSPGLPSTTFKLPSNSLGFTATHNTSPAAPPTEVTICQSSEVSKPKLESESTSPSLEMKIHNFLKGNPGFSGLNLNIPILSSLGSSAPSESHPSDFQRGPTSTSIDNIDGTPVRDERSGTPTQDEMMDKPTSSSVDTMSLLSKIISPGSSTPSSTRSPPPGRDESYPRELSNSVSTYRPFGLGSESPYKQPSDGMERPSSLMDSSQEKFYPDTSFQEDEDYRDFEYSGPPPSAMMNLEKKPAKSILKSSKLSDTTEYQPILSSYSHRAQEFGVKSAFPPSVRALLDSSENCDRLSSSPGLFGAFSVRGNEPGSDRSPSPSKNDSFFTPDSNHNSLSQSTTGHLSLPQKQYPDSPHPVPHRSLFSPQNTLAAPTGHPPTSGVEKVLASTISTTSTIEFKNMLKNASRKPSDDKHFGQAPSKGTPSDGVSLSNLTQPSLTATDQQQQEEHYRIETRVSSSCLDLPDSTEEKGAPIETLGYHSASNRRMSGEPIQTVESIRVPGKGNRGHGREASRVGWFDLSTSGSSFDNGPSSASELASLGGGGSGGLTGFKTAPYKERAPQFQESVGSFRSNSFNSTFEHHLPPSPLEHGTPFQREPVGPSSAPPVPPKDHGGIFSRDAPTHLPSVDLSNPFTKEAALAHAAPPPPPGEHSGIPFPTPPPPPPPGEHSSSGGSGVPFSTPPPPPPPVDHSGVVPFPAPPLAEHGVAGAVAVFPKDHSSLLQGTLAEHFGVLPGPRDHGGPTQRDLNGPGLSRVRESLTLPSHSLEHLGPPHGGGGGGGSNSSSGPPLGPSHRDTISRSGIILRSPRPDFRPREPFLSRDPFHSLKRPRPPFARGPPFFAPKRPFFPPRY
UniProt P78317: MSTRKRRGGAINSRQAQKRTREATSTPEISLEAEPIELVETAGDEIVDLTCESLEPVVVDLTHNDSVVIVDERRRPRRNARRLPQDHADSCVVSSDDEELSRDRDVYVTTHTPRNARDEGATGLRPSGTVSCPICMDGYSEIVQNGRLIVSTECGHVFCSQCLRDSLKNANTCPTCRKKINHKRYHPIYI

[2] = compound: CON(C)C(=O)N1N=C(c2cc(F)ccc2F)S[C@@]1(CCCN)c1ccccc1 [filanesib]
Method in brief: as §1

[3] = compound: CO[C@H]1C[C@@H]2CC[C@@H](C)[C@@](O)(O2)C(=O)C(=O)N2CCCC[C@H]2C(=O)O[C@H]([C@H](C)C[C@@H]2CC[C@H](n3cnnn3)[C@H](OC)C2)CC(=O)[C@H](C)/C=C(\C)[C@@H](O)[C@@H](OC)C(=O)[C@H](C)C[C@H](C)/C=C/C=C/C=C/1C [zotarolimus]
Method in brief: as §1

[4] = compound: COc1cc(C(=O)O)ccc1NC(=O)[C@@H]1N[C@@H](CC(C)(C)C)[C@](C#N)(c2ccc(Cl)cc2F)[C@H]1c1cccc(Cl)c1F [idasanutlin]
Method in brief: as §1

[5] = compound: COc1cc(Nc2ncc3c(n2)-c2ccc(Cl)cc2C(c2c(F)cccc2OC)=NC3)ccc1C(=O)O [alisertib]
Method in brief: as §1

[6] = compound: COc1cc2nc(-c3cc(F)ccc3O)nc(N[C@@H]3CNC[C@H]3C(C)(C)O)c2cc1OC
Method in brief: as §1

[7] = compound: COc1cc2ncnc(Nc3ccc(F)c(Cl)c3)c2cc1OCCCN1CCOCC1 [gefitinib]
Method in brief: as §1

[8] = compound: COc1cccc2cc(-c3nc([C@H]4CC[C@H](C(=O)O)CC4)n4ncnc(N)c34)[nH]c12
Method in brief: as §1

[9] = compound: CS(=O)(=O)CCNCc1ccc(-c2ccc3ncnc(Nc4ccc(OCc5cccc(F)c5)c(Cl)c4)c3c2)o1 [lapatinib]
Method in brief: as §1

[10] = compound: CS(=O)(=O)N1CCN(Cc2cc3nc(-c4cccc5[nH]ncc45)nc(N4CCOCC4)c3s2)CC1 [pictilisib]
Method in brief: as §1

[11] = compound: CS(=O)(=O)c1ccc(-c2cnc(N)c(C(=O)Nc3ccccc3)n2)cc1
Method in brief: as §1

[12] = compound: C[C@@H](Oc1cc(-c2cnn(C3CCNCC3)c2)cnc1N)c1c(Cl)ccc(F)c1Cl [crizotinib]
Method in brief: as §1

[13] = compound: C[C@@H]1COCCN1C2=NC(=NC(=C2)C3(CC3)S(=O)(=O)C)C4=C5C=CNC5=CC=C4
Method in brief: as §1

[14] = compound: C[C@H](C1=CC=C(C=C1)C(=O)NC2=C3C=CNC3=NC=C2)N
Method in brief: as §1

[15] = compound: Cc1cc(Nc2cc(CN3CCOCC3)c3nc(C)c(Cc4ccc(Cl)cc4F)n3n2)n[nH]1 [gandotinib]
Method in brief: as §1

[16] = compound: Cc1cc(SCc2sc(-c3ccc(C(F)(F)F)cc3)nc2C)ccc1OCC(=O)O
Method in brief: as §1

[17] = compound: Cc1ccc(-n2nc(C(C)(C)C)cc2NC(=O)Nc2ccc(OCCN3CCOCC3)c3ccccc23)cc1 [doramapimod]
Method in brief: as §1

[18] = compound: Cc1ccc(C(=O)N(CCCN)[C@@H](c2nc3cc(Cl)ccc3c(=O)n2Cc2ccccc2)C(C)C)cc1 [ispinesib]
Method in brief: as §1

[19] = compound: Cc1cc(Nc2cc(N3CCN(C)CC3)nc(Sc3ccc(NC(=O)C4CC4)cc3)n2)n[nH]1 [tozasertib]
Method in brief: as §1

Measured: log2 fold change

RPS5 (UniProt P46782)
inactive: [1] 0.004 | [2] 0.089 | [3] 0.011 | [4] 0.094 | [5] -0.11 | [6] -0.056 | [7] -0.052 | [8] -0.126 | [9] 0.081 | [10] -0.099 | [11] -0.081 | [12] 0 | [13] -0.255 | [14] 0.176 | [15] 0.108 | [16] 0.017 | [17] 0.069 | [18] -0.073

RRAGC (UniProt Q9HB90)
inactive: [1] -0.028 | [2] -0.095 | [3] -0.009 | [4] -0.065 | [5] -0.003 | [6] 0.011 | [7] -0.01 | [8] 0.057 | [9] -0.01 | [10] 0.066 | [11] 0.016 | [12] -0.262 | [13] 0.008 | [14] -0.027 | [15] 0 | [16] -0.039 | [17] 0.019 | [18] -0.153

RPL31 (UniProt P62899)
inactive: [1] -0.084 | [2] 0.277 | [3] -0.013 | [4] 0.151 | [5] -0.118 | [6] -0.013 | [7] -0.075 | [8] -0.25 | [9] 0.103 | [10] -0.092 | [11] -0.08 | [12] 0.079 | [13] -0.56 | [14] 0.396 | [15] 0.35 | [16] -0.001 | [17] 0.173 | [18] -0.167

RPS4X (UniProt P62701)
inactive: [1] -0.059 | [2] 0.314 | [3] -0.001 | [4] 0.148 | [5] -0.099 | [6] -0.038 | [7] -0.048 | [8] -0.222 | [9] 0.102 | [10] -0.155 | [11] -0.027 | [12] 0.021 | [13] -0.378 | [14] 0.333 | [15] 0.264 | [16] -0.023 | [17] 0.18 | [18] -0.141

RPS16 (UniProt P62249)
inactive: [1] -0.117 | [2] 0.092 | [3] 0.025 | [4] 0.093 | [5] -0.167 | [6] -0.027 | [7] -0.014 | [8] -0.199 | [9] 0.046 | [10] -0.162 | [11] -0.107 | [12] 0 | [13] -0.353 | [14] 0.214 | [15] 0.172 | [16] -0.023 | [17] 0.055 | [18] -0.088

RPS3 (UniProt P23396)
inactive: [1] -0.093 | [2] 0.102 | [3] -0.023 | [4] 0.055 | [5] -0.05 | [6] -0.027 | [7] -0.056 | [8] -0.149 | [9] 0.053 | [10] -0.059 | [11] -0.07 | [12] 0.025 | [13] -0.258 | [14] 0.203 | [15] 0.134 | [16] 0.045 | [17] 0.077 | [18] -0.127

RPS21 (UniProt P63220)
inactive: [1] -0.033 | [2] 0.086 | [3] -0.021 | [4] 0.031 | [5] -0.069 | [6] 0.04 | [7] 0.002 | [8] -0.022 | [9] -0.027 | [10] -0.01 | [11] -0.053 | [12] 0.141 | [13] -0.108 | [14] 0.044 | [15] 0.048 | [16] -0.004 | [17] -0.022 | [18] 0.015

RPS19 (UniProt P39019)
inactive: [1] 0 | [2] 0.102 | [3] -0.015 | [4] 0.113 | [5] -0.114 | [6] -0.024 | [7] -0.049 | [8] -0.12 | [9] 0.059 | [10] -0.137 | [11] -0.12 | [12] 0.023 | [13] -0.309 | [14] 0.182 | [15] 0.201 | [16] 0.018 | [17] 0.05 | [18] -0.081

ROCK2 (UniProt O75116)
active: [14] 0.392
inactive: [1] -0.009 | [2] -0.006 | [3] 0.023 | [4] 0 | [5] 0.072 | [6] 0.135 | [7] 0.045 | [8] -0.038 | [9] -0.029 | [10] 0.071 | [11] 0.033 | [12] -0.041 | [13] 0.026 | [15] -0.049 | [16] 0.004 | [17] 0.007 | [18] -0.049

RPS13 (UniProt P62277)
inactive: [1] -0.132 | [2] 0.394 | [3] 0.015 | [4] 0.145 | [5] -0.164 | [6] -0.012 | [7] -0.051 | [8] -0.316 | [9] 0.117 | [10] -0.226 | [11] -0.053 | [12] 0.076 | [13] -0.548 | [14] 0.403 | [15] 0.296 | [16] -0.013 | [17] 0.247 | [18] -0.195

RPS12 (UniProt P25398)
inactive: [1] -0.009 | [2] 0.018 | [3] -0.026 | [4] 0.048 | [5] -0.17 | [6] -0.057 | [7] -0.02 | [8] -0.159 | [9] 0.062 | [10] -0.033 | [11] -0.041 | [12] 0.078 | [13] -0.098 | [14] 0.165 | [15] 0.124 | [16] -0.011 | [17] 0.012 | [18] 0.017

ROS1 (UniProt P08922)
inactive: [1] -0.357 | [2] 0.567 | [3] -0.073 | [4] -0.122 | [5] -0.028 | [6] 0.207 | [7] -0.044 | [8] 0.069 | [9] -0.091 | [10] 0.19 | [11] 0.14 | [12] -0.051 | [14] 0.224 | [15] -0.317 | [17] 0.222

RPS25 (UniProt P62851)
inactive: [1] 0.006 | [2] 0.145 | [3] -0.015 | [4] 0.061 | [5] -0.143 | [6] -0.038 | [7] -0.022 | [8] -0.198 | [9] 0.038 | [10] -0.08 | [11] -0.101 | [12] -0.041 | [13] -0.286 | [14] 0.239 | [15] 0.239 | [16] 0.032 | [17] 0.178 | [18] -0.148

RRAS2 isoform 4 (UniProt P62070)
inactive: [1] 0.004 | [2] 0.059 | [3] -0.025 | [4] 0.016 | [5] -0.099 | [6] 0.075 | [7] 0.061 | [8] 0.093 | [9] 0.017 | [10] 0.05 | [11] 0.044 | [12] 0.162 | [13] -0.001 | [14] -0.152 | [15] -0.016 | [16] -0.042 | [17] 0.012 | [18] -0.019

RPS14 (UniProt P62263)
inactive: [1] 0.034 | [2] 0.046 | [3] 0.028 | [4] 0.062 | [5] -0.209 | [6] -0.047 | [7] -0.048 | [8] -0.154 | [9] 0.132 | [10] -0.321 | [11] -0.049 | [12] -0.075 | [13] -0.22 | [14] 0.183 | [15] 0.056 | [16] 0.023 | [17] 0.071 | [18] 0.002

Two records drawn at random from the list so far, as already listed:
RPS12 (UniProt P25398)
inactive: [1] -0.009 | [2] 0.018 | [3] -0.026 | [4] 0.048 | [5] -0.17 | [6] -0.057 | [7] -0.02 | [8] -0.159 | [9] 0.062 | [10] -0.033 | [11] -0.041 | [12] 0.078 | [13] -0.098 | [14] 0.165 | [15] 0.124 | [16] -0.011 | [17] 0.012 | [18] 0.017

ROS1 (UniProt P08922)
inactive: [1] -0.357 | [2] 0.567 | [3] -0.073 | [4] -0.122 | [5] -0.028 | [6] 0.207 | [7] -0.044 | [8] 0.069 | [9] -0.091 | [10] 0.19 | [11] 0.14 | [12] -0.051 | [14] 0.224 | [15] -0.317 | [17] 0.222

Further results follow:

RPL10 (UniProt F8W7C6)
inactive: [2] 0.311 | [3] -0.028 | [5] -0.046 | [6] 0.011 | [7] 0.014 | [8] -0.149 | [9] -0.06 | [10] -0.253 | [11] -0.102 | [13] -0.182 | [14] 0.357 | [15] -0.008 | [19] -0.028

RPAIN isoform 8 (UniProt Q86UA6)
inactive: [1] -0.055 | [2] 0.006 | [3] 0.028 | [4] 0.109 | [6] -0.061 | [9] -0.063 | [11] -0.024 | [12] 0.144 | [13] 0.385 | [14] -0.039 | [16] 0.078 | [17] -0.04 | [18] -0.155

ROGDI (UniProt Q9GZN7)
inactive: [3] 0.018 | [10] -0.046 | [14] 0.101 | [15] -0.113 | [18] -0.344

RPRD2 (UniProt Q5VT52)
inactive: [1] 0.115 | [4] -0.045 | [6] 0.033 | [9] 0.116 | [12] -0.145 | [13] 0.118 | [19] 0.003 | [17] -0.166 | [18] -0.138

RPGR (UniProt Q92834)
inactive: [13] 0.054 | [19] 0.233

RNF4 (UniProt P78317)
inactive: [2] -0.17 | [4] 0.331 | [5] 0.012 | [6] 0.233 | [7] -0.077 | [8] -0.043 | [9] 0.043 | [11] 0.04 | [13] 0.089 | [19] 0.121

Reference: the supplement of paper PMC10849652
